# In patent publication US20220079916A1, “USE OF GERANYLFLAVONE A IN PREPARATION OF DRUG FOR PROMOTING HEALING OF WOUNDS” (HANYI BIO-TECHNOLOGY COMPANY LTD., priority 2019, published 2022):
# Some results were stated once for a whole list of compounds, not compound by compound.
# Tested on: whole cortex wound of wild C57 adult male mice
# Assay: Experiment of skin wound healing (Example 2, wound without bacterial infection)
# Format: in vivo, mice (C57BL/6)
# Conditions: 10 mg/mouse mixed with 5 mg vaseline, applied onto the wound once a day; normal mice, no infection
# Description: Wild C57 adult male mice (C57BL/6, purchased from Vital River) were taken and anesthetized, and then subjected to backside unhairing to establish a whole cortex wound with a 6 mm biopsy puncher. Attention should be paid to disinfection for preventing infection.
# A normal control group: 5 mice, no administration.
# A group administrated with vaseline: vaseline (vaseline for medical purpose, purchased from Tianjin Zhiyuan Chemical Reagent Co., Ltd., the same below), 5 mg vaseline/mouse, 5 mice.
# A group administrated with A drug A: 10 mg/mouse, 10 mice (as a flavonoid control, and the drug A was soybean isoflavones).
# A group administrated with a drug B: 10 mg/mouse, 10 mice (as a flavonoid control, and the drug B was quercetin).
# A group administrated with cannflavin A: cannflavin A, 10 mg/mouse, 10 mice. The administration modes of the latter 4 groups were all application onto the wound, and the administration was conducted once a day. Because vaseline was a commonly used ointment base^[8], in the latter 3 groups, the drug A, the drug B or cannflavin A were respectively well mixed with 5 mg of vaseline and then administered.
# Photos were taken to record a wound healing condition of mice on days 0, 4 and 7 of administration, and the healing degree of a wound area was calculated by the PhotoShop software with 1 cm^2 as a scale. […]
compound,measurement,value
"O=c1c(O)c(-c2ccc(O)c(O)c2)oc2cc(O)cc(O)c12 [drug B, quercetin, reference compound]",time in which the wound could completely heal,≤ 7 days
